No constants are given. Whether binding was seen depends on the method and setting. Binding seen in cells or lysates may run through a third protein. Some binding calls cover weakened binding; strength is not graded here. For part of these data: Sequences can lack the tags named with a protein.
T1: GST-USP13, Q92995
T1 chain: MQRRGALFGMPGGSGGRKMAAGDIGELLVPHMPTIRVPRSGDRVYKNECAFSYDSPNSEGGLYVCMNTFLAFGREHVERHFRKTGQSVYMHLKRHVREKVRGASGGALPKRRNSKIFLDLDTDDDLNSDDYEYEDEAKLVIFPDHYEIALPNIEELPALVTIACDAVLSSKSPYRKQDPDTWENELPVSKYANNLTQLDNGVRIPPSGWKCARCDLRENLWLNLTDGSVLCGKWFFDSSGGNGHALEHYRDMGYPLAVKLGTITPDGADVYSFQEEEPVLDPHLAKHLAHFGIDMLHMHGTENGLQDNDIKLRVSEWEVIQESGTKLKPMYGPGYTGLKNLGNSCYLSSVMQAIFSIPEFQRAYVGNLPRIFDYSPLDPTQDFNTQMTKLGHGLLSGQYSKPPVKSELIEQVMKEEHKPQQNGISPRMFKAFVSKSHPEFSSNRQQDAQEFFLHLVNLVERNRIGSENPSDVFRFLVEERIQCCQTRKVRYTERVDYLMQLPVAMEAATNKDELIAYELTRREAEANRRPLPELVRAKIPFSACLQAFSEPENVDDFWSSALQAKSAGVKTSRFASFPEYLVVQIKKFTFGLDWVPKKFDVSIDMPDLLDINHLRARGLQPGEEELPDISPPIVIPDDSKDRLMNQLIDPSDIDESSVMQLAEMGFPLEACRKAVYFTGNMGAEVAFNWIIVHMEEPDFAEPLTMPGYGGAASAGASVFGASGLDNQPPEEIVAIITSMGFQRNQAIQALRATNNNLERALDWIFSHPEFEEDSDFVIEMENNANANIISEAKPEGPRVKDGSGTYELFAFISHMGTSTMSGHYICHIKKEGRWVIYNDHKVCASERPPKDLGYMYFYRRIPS

T2: FLAG-USP13, Q92995
T2 chain: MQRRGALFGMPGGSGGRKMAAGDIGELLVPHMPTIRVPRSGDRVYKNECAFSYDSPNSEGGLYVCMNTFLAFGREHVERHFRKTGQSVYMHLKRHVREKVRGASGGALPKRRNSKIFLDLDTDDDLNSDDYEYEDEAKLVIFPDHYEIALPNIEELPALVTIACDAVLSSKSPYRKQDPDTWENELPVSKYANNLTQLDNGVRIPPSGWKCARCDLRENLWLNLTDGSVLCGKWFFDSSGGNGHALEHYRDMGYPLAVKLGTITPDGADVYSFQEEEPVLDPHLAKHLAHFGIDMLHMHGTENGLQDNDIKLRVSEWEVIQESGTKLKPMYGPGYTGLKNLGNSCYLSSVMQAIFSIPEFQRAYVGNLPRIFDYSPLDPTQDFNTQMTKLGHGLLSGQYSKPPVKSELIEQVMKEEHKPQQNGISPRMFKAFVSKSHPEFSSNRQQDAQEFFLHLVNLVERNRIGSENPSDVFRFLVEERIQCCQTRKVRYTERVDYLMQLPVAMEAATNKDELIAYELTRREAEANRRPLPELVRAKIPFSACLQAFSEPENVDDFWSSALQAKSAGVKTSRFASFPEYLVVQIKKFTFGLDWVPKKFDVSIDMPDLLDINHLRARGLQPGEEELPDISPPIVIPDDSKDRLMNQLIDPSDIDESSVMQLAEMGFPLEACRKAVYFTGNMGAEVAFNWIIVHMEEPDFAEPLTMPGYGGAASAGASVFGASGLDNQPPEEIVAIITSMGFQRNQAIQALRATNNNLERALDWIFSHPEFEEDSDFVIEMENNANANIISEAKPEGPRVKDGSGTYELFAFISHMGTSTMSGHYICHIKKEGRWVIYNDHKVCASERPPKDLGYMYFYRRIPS

T3: endogenous USP13 (human (endogenous in HEK293)), Q92995
T3 chain: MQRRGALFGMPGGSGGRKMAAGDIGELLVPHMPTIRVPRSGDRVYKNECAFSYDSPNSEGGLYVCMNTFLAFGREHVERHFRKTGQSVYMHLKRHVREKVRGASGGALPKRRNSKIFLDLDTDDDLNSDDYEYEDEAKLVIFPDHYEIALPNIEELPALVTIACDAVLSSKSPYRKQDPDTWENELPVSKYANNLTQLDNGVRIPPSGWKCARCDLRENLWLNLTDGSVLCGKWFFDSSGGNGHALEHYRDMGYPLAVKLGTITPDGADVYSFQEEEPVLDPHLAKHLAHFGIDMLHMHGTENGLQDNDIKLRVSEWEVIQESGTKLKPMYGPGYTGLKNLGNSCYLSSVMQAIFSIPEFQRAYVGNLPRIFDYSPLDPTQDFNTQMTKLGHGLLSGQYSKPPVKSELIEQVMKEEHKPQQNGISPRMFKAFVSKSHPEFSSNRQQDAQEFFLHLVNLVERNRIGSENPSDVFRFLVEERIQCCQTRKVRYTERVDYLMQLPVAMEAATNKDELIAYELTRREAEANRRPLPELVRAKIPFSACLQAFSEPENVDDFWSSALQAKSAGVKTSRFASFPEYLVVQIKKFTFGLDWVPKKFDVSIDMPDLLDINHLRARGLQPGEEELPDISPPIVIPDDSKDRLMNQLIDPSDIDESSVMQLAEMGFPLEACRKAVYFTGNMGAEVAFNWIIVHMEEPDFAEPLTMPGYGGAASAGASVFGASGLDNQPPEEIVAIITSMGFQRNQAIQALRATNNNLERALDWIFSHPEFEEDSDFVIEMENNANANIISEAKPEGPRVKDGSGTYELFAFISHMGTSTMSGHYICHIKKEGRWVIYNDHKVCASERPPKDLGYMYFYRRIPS

T4: overexpressed gp78, Q9UKV5
T4 chain: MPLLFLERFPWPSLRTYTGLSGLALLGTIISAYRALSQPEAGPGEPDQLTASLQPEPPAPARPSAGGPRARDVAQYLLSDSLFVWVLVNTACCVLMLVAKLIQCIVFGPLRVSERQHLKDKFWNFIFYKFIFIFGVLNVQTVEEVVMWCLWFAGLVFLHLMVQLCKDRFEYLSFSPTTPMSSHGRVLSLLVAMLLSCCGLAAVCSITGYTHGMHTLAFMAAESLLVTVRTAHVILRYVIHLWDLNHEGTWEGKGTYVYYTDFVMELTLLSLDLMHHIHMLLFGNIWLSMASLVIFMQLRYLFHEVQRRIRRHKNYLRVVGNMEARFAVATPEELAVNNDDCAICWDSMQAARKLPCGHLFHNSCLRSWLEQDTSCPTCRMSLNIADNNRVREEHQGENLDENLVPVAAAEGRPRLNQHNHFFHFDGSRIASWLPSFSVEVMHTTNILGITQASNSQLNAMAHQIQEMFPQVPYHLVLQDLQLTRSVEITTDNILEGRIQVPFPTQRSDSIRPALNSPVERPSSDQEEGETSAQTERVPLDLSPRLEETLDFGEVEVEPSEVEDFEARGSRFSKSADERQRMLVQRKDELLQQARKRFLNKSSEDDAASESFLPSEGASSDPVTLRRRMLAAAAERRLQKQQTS


What was measured:
Conditions in all cases: remark: other sources report otherwise
GST-USP13, Q92995 = biological target: T1, GST-USP13, Q92995; experiment: pull-down; glutathione beads with purified GST-tagged protein incubated with whole cell extracts (control, gp78-expressing, gp78 knock-down or knock-out cells; depletion of gp78 reduced the USP13-p97 interaction threefold to fourfold and did not affect USP13-Bag6); immunoblotting; only the target purified
FLAG-USP13, Q92995 = biological target: T2, FLAG-USP13, Q92995; experiment: co-IP; extracts of transfected cells (FLAG-tagged DUB or chimera, in part with gp78), immunoprecipitation with FLAG beads; NP40 lysis buffer; immunoblotting
[1] = biological target: T3, endogenous USP13 (human (endogenous in …)); experiment: co-IP; whole cell extract, immunoprecipitation with control or anti-USP13 antibodies; all proteins endogenous; immunoblotting
[2] = biological target: T4, overexpressed gp78, Q9UKV5; experiment: co-IP; sequential immunoprecipitation: extract of cells expressing FLAG-USP13 and untagged gp78, first FLAG beads, elution with FLAG peptide (0.2 mg/ml), then anti-gp78 or control antibody

Row | Binder | binding (GST-USP13, Q92995) | binding (FLAG-USP13, Q92995) | binding [1] | binding [2]
1 | overexpressed gp78, Q9UKV5 1-643 (enzyme) MPLLFLERFPWPSLRTYTGLSGLALLGTIISAYRALSQPEAGPGEPDQLTASLQPEPPAPARPSAGGPRARDVAQYLLSDSLFVWVLVNTACCVLMLVAKLIQCIVFGPLRVSERQHLKDKFWNFIFYKFIFIFGVLNVQTVEEVVMWCLWFAGLVFLHLMVQLCKDRFEYLSFSPTTPMSSHGRVLSLLVAMLLSCCGLAAVCSITGYTHGMHTLAFMAAESLLVTVRTAHVILRYVIHLWDLNHEGTWEGKGTYVYYTDFVMELTLLSLDLMHHIHMLLFGNIWLSMASLVIFMQLRYLFHEVQRRIRRHKNYLRVVGNMEARFAVATPEELAVNNDDCAICWDSMQAARKLPCGHLFHNSCLRSWLEQDTSCPTCRMSLNIADNNRVREEHQGENLDENLVPVAAAEGRPRLNQHNHFFHFDGSRIASWLPSFSVEVMHTTNILGITQASNSQLNAMAHQIQEMFPQVPYHLVLQDLQLTRSVEITTDNILEGRIQVPFPTQRSDSIRPALNSPVERPSSDQEEGETSAQTERVPLDLSPRLEETLDFGEVEVEPSEVEDFEARGSRFSKSADERQRMLVQRKDELLQQARKRFLNKSSEDDAASESFLPSEGASSDPVTLRRRMLAAAAERRLQKQQTS | binds | binds |  | 
2 | endogenous gp78, Q9UKV5 1-643 (enzyme) MPLLFLERFPWPSLRTYTGLSGLALLGTIISAYRALSQPEAGPGEPDQLTASLQPEPPAPARPSAGGPRARDVAQYLLSDSLFVWVLVNTACCVLMLVAKLIQCIVFGPLRVSERQHLKDKFWNFIFYKFIFIFGVLNVQTVEEVVMWCLWFAGLVFLHLMVQLCKDRFEYLSFSPTTPMSSHGRVLSLLVAMLLSCCGLAAVCSITGYTHGMHTLAFMAAESLLVTVRTAHVILRYVIHLWDLNHEGTWEGKGTYVYYTDFVMELTLLSLDLMHHIHMLLFGNIWLSMASLVIFMQLRYLFHEVQRRIRRHKNYLRVVGNMEARFAVATPEELAVNNDDCAICWDSMQAARKLPCGHLFHNSCLRSWLEQDTSCPTCRMSLNIADNNRVREEHQGENLDENLVPVAAAEGRPRLNQHNHFFHFDGSRIASWLPSFSVEVMHTTNILGITQASNSQLNAMAHQIQEMFPQVPYHLVLQDLQLTRSVEITTDNILEGRIQVPFPTQRSDSIRPALNSPVERPSSDQEEGETSAQTERVPLDLSPRLEETLDFGEVEVEPSEVEDFEARGSRFSKSADERQRMLVQRKDELLQQARKRFLNKSSEDDAASESFLPSEGASSDPVTLRRRMLAAAAERRLQKQQTS | binds | binds | binds | 
3 | FLAG-USP13, Q92995 1-863 (enzyme) MQRRGALFGMPGGSGGRKMAAGDIGELLVPHMPTIRVPRSGDRVYKNECAFSYDSPNSEGGLYVCMNTFLAFGREHVERHFRKTGQSVYMHLKRHVREKVRGASGGALPKRRNSKIFLDLDTDDDLNSDDYEYEDEAKLVIFPDHYEIALPNIEELPALVTIACDAVLSSKSPYRKQDPDTWENELPVSKYANNLTQLDNGVRIPPSGWKCARCDLRENLWLNLTDGSVLCGKWFFDSSGGNGHALEHYRDMGYPLAVKLGTITPDGADVYSFQEEEPVLDPHLAKHLAHFGIDMLHMHGTENGLQDNDIKLRVSEWEVIQESGTKLKPMYGPGYTGLKNLGNSCYLSSVMQAIFSIPEFQRAYVGNLPRIFDYSPLDPTQDFNTQMTKLGHGLLSGQYSKPPVKSELIEQVMKEEHKPQQNGISPRMFKAFVSKSHPEFSSNRQQDAQEFFLHLVNLVERNRIGSENPSDVFRFLVEERIQCCQTRKVRYTERVDYLMQLPVAMEAATNKDELIAYELTRREAEANRRPLPELVRAKIPFSACLQAFSEPENVDDFWSSALQAKSAGVKTSRFASFPEYLVVQIKKFTFGLDWVPKKFDVSIDMPDLLDINHLRARGLQPGEEELPDISPPIVIPDDSKDRLMNQLIDPSDIDESSVMQLAEMGFPLEACRKAVYFTGNMGAEVAFNWIIVHMEEPDFAEPLTMPGYGGAASAGASVFGASGLDNQPPEEIVAIITSMGFQRNQAIQALRATNNNLERALDWIFSHPEFEEDSDFVIEMENNANANIISEAKPEGPRVKDGSGTYELFAFISHMGTSTMSGHYICHIKKEGRWVIYNDHKVCASERPPKDLGYMYFYRRIPS |  |  |  | binds

From publication PMC3889402
